# Results taken from PubChem BioAssay AID2685 (National Center for Advancing Translational Sciences (NCATS), 2010).
# The campaign covered roughly 320,000 compounds. About 2,100 (0.66%) were called active. The shares of active, inactive and inconclusive entries below differ from those in the screen. Calls follow the shape of the dose curve; as a rule, active = well fitted inhibition curve with a large enough effect in the signal ratio, with a control signal flat (not every such curve was filed as active); inconclusive = small, poorly fitted or top-dose-only effect, or effect the other way, or a change in a side signal; inactive = flat fitted curve, though single readings scatter; the % refers to the signal ratio. Where the call is inconclusive, the potency comes from a doubtful curve fit.
# Assay: qHTS Assay for Lipid Storage Modulators in Drosophila S3 Cells
# Conditions: BODIPY lipid droplet fluorescence, 18-24 h, cells fed with added oleic acid; lipid storage change, negative = inhibition: at 46.1 µM (top of the series) unless noted
# Outline: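 Drosophila S3 cells got compounds at several concentrations plus oleic acid (400 uM solution). Laser-scanning cytometry with 488 nm excitation read lipid droplets at 500-530 nm and cells at 575-640 nm. Percent activity was relative to 20 uM Triacsin C.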
# % is scaled to controls: 0 for no effect and ±100 for the full control effect; potency is read from the fitted curve at half-maximal effect.
Compound,"lipid storage change, negative = inhibition",Potency,outcome
Cc1nn(CC(C)C)c(Cl)c1C(=O)NC1CCC(C)CC1 (stereo unspecified),inactive,,
COCCCOc1ccnc(CS(=O)c2nc3ccccc3[nH]2)c1C (stereo unspecified),,"inconclusive: 0.164 µM [falling, full curve, poor fit]",
Cc1ccc2c(c1)CCCN2N=O,inconclusive: 7.51%,,
COc1ccc(CCC(=O)N2C[C@H]3C[C@@H](C2)c2cccc(=O)n2C3)cc1,inconclusive: 20.4%,,
CN(C(=O)Cn1c(=O)oc2ccccc21)C1CCCCC1,,"inconclusive: 3.66 µM [activator, full curve]",
COc1ccc(-c2n(-c3ccccn3)c3ccccc3[n+]2-c2ccccn2)cc1,inconclusive: -26.5%,,
O=P(O)(O)COc1ccccc1P(=O)(c1ccccc1)c1ccccc1,,active: 16.4 µM,
COc1ccc(CNCCc2ccc3c(c2)OCO3)c(OC)c1OC,inconclusive: 381%,,
COC(=O)C1=C(c2ccc(F)cc2F)C[C@@H]2CC[C@H]1N2C(=O)NC1CC1,inconclusive: 5.58%,,
C=CCn1c(O)c(C(C)=NC(C)c2ccccc2)c(=O)[nH]c1=O (stereo unspecified),inconclusive: 10.4%,,
C[N+]1(C)[C@@H]2CC(OC(=O)[C@H](CO)c3ccccc3)C[C@H]1[C@@H]1O[C@@H]12 (stereo partly specified),inconclusive: -22%,,
CCOP(=O)(OCC)/C(=N/OC(=O)c1ccccc1C)C(N)=O,,"inconclusive: 6.51 µM [rising, partial curve]",
CCCC[N+]12CCC(CC1)C(C(=O)c1cccs1)C2 (stereo unspecified),inconclusive: 64.7%,,
CC(C)n1cc(C(=O)N(CC(=O)NC2CCCC2)Cc2ccccc2)cn1,inconclusive: 3.63%,,
Cc1cc(=O)oc2cc(OCC(=O)N3C[C@H]4C[C@@H](C3)c3cccc(=O)n3C4)ccc12,inconclusive: 0.915%,,
NP(=O)(OCCCc1ccccc1)Oc1ccccc1Cl (stereo unspecified),inconclusive: 35.2%,,
O=C(c1ccco1)c1cn(Cc2ccc(Cl)cc2)c2ccccc12,inconclusive: 31%,,
O=C(COc1ccc(S(=O)(=O)N2CCOCC2)cc1)N1CCN(Cc2ccc3c(c2)OCO3)CC1,inconclusive: 41.8%,,
CCC(=NCC1CCCO1)c1c(O)n(-c2ccccc2)c(=O)[nH]c1=O (stereo unspecified),,"inconclusive: 0.164 µM [falling, full curve, poor fit]",
CCc1ccccc1NC(=O)CNCc1ccccc1,inconclusive: -29.7%,,
O=C1NC(=S)N(c2ccc(F)cc2)C(=O)/C1=C\c1ccoc1,inconclusive: -11.8%,,
COC(=O)N1C(c2ccccc2)C1c1ccccc1 (stereo unspecified),inconclusive: 29.4%,,
c1ccc2c(CN3CCOCC3)c[nH]c2c1,,"inconclusive: 29.1 µM [activator, single point]",
O=C(COC(=O)Cc1ccccc1)NC(=O)NC1CCCCC1,,,inconclusive [setting not given]
COC(=O)C1=C(c2ccc(F)cc2OCc2ccccc2)C[C@@H]2CC[C@H]1N2C(=O)N1CCC(C)CC1,inconclusive: -11.9%,,
Cc1oc2ccc(OC(=O)N3CCOCC3)cc2c1C(=O)OC(C)C,,"inconclusive: 20.6 µM [activator, single point]",

# A draw from above in order of molecular weight, smallest number first.
Compound,"lipid storage change, negative = inhibition",Potency,outcome
Cc1ccc2c(c1)CCCN2N=O,inconclusive: 7.51%,,
c1ccc2c(CN3CCOCC3)c[nH]c2c1,,"inconclusive: 29.1 µM [activator, single point]",
COc1ccc(-c2n(-c3ccccn3)c3ccccc3[n+]2-c2ccccn2)cc1,inconclusive: -26.5%,,

# (cont.)

Compound,"lipid storage change, negative = inhibition",Potency,outcome
CCNc1nc(Cl)nc(NC(C)C)n1,inconclusive: 11.7%,,
O=c1[nH]c(O)c(C=Nc2ccccc2[N+](=O)[O-])c(=O)[nH]1,inconclusive: -6.52%,,
C=C(C)CSc1nnc([C@@H](N)Cc2ccccc2)o1,inactive,,
CN1CCN2c3ccccc3Cc3ccccc3C2C1 (stereo unspecified),,"inconclusive: 0.731 µM [falling, full curve, poor fit]",
CCC1(CCc2ccncc2)C(=O)NC(=O)NC1=O,,"inconclusive: 0.0041 µM [falling, full curve, poor fit]",
COCCNC(=O)c1ccc(N2CC3CC(C2)c2cccc(=O)n2C3)c([N+](=O)[O-])c1 (stereo unspecified),,"inconclusive: 6.51 µM [falling, single point]",
OC1(c2ccc(F)cc2)CC2CCC(C1)N2Cc1nnnn1C1CCCC1 (stereo unspecified),,"inconclusive: 29.1 µM [rising, single point]",
O=C(N/N=C/c1c(O)n(C2CC2)c(=S)[nH]c1=O)c1ccccc1Cl,inconclusive: 18.4%,,
COc1cccc(OC)c1C(=O)NC(=S)N1C[C@H]2C[C@H](C1)c1cccc(=O)n1C2,inconclusive: -41.5%,,
c1ccc(CCNC2CCCCCC2)cc1,inconclusive: 24.9%,,
COC(=O)c1cn(C(=O)c2cccc3ccccc23)c2ccccc12,,"inconclusive: 29.1 µM [rising, single point]",
COC(=O)C1=C(c2ccc(OC)c(OC)c2)C[C@@H]2CC[C@H]1N2C(=O)NCCc1ccccc1,inconclusive: 3.38%,,
Cc1ccc(S(=O)(=O)Nc2cc(C(=O)N3CCC4(CC3)OCCO4)ccc2N2CCCCC2)cc1,inconclusive: -42.9%,,
Cc1nc2ccc(P(=O)(O)O)cc2s1,inconclusive: -22.7%,,
CC1=NN(c2ccccc2)C(=O)/C1=C/c1c(O)[nH]c(=S)[nH]c1=O,inconclusive: 31.8%,,
O=c1oc2ccccc2c(O)c1[C@H]1c2ccc(O)cc2Oc2c1c(=O)oc1ccccc21,inconclusive: -7.78%,,
Cc1ccc(/C=C2\C(=O)NC(=S)N(c3ccccc3F)C2=O)s1,,"inconclusive: 20.6 µM [falling, single point]",
Cc1ccc(S(=O)(=O)NCCC(=O)Nc2ccc(Cl)cc2C(=O)c2ccccc2)cc1,inconclusive: -23%,,
O=[N+]([O-])c1cnc[nH]1,inconclusive: -5.3%,,
OC(c1ccccc1)(c1ccccc1)C1CCCN1 (stereo unspecified),inactive,,
CCCCOC(=O)C1=C(N)OC2=C(C(=O)CC(C)(C)C2)[C@]12C(=O)N(C)c1ccccc12,inactive,,
COc1ccccc1OCC#CCN1CCCCCC1,inconclusive: -44.5%,,
COC(=O)C1=C(N)OC(C)=C(C(C)=O)C12C(=O)N(C)c1ccccc12 (stereo unspecified),inconclusive: -19.2%,,
CCN(CC)C(=O)N[C@H]1C[C@@H]2c3cccc4[nH]cc(c34)C[C@H]2N(C)C1,inconclusive: -1.47%,,
CCc1c(C)nc(N)nc1N1N=C1SCCOc1ccccc1,inconclusive: -23%,,
